The list shows a part of the results.
What was measured:
Assay in all cases: log2 fold change, soluble protein after heating vs DMSO (PISA); higher = thermal stabilisation; K562 cells, 10 uM, 30 min; active = over 0.2 and 3.5 SD of the protein, either way, in both replicates (recomputed)
bafetinib = compound: Cc1ccc(NC(=O)c2ccc(CN3CC[C@H](N(C)C)C3)c(C(F)(F)F)c2)cc1Nc1nccc(-c2cncnc2)n1 [bafetinib]
How it was run: (§1)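 K562 cells at 2×10^6 cells/mL were given 10 μM compound for 30 min. Aliquots then went through 3 min of heating across 48°C-58°C, were pooled, and were extracted in PBS with 0.5% NP-40 at 4°C, and the supernatant after 21,000xg for 90 min was quantified by TMTpro 16plex LC-MS/MS with channel sums equalised. Thermal stability relative to control samples, from duplicates, is given as log2 fold change.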

Chains of the proteins cited; added tags and fusions are not shown. Lines headed by an entry give the natural chain unless they say otherwise; changes in a name come on top.
UniProt Q9HB90, whole entry, looked up: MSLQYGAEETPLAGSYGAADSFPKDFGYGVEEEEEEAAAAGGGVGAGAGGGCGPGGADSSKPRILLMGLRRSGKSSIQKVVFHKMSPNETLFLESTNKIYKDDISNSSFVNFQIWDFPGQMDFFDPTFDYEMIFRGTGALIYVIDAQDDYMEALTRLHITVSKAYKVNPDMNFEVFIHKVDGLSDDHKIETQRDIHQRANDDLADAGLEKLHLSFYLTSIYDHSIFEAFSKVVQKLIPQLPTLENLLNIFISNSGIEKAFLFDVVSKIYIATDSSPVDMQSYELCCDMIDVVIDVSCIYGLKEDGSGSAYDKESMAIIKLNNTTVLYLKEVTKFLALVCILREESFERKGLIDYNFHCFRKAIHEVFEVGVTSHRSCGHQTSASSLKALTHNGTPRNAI
UniProt O75695: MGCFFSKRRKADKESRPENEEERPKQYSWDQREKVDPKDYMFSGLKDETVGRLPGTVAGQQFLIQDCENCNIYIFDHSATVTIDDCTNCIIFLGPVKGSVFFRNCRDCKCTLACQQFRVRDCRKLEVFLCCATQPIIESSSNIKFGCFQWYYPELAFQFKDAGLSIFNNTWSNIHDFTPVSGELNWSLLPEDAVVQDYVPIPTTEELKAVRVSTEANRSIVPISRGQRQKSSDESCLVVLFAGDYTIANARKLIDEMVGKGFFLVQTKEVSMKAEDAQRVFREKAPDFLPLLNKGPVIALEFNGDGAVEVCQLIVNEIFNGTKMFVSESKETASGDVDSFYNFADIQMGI
UniProt P31350, whole entry, looked up: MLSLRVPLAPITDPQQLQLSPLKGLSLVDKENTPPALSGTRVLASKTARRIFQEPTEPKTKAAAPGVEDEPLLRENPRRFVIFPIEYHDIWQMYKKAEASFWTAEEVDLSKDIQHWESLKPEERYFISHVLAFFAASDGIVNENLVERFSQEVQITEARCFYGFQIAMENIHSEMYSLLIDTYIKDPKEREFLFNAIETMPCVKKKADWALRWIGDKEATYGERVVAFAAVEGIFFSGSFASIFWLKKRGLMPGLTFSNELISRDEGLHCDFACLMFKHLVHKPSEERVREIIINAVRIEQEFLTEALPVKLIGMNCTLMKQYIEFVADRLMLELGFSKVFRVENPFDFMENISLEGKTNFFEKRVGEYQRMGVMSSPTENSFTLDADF
UniProt Q9H4A4: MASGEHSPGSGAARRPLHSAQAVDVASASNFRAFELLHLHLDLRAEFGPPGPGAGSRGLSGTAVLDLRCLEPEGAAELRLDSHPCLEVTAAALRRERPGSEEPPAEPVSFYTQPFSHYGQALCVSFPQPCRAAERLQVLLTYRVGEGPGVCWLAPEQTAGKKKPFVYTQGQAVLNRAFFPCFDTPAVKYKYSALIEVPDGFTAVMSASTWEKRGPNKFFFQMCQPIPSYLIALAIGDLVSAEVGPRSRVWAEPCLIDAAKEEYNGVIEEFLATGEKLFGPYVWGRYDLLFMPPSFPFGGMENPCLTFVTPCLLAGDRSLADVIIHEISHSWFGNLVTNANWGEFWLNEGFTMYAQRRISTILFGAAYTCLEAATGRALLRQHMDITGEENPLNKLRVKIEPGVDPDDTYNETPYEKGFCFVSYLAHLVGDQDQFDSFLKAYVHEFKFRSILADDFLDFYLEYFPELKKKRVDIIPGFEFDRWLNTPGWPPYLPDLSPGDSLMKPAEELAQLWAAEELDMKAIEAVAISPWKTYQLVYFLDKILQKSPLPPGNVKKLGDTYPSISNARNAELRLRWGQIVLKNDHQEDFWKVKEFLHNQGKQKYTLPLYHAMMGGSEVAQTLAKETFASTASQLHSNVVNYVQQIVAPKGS
UniProt P60602: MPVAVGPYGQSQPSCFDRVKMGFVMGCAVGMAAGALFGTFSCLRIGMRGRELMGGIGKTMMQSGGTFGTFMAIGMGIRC
UniProt Q96BH1: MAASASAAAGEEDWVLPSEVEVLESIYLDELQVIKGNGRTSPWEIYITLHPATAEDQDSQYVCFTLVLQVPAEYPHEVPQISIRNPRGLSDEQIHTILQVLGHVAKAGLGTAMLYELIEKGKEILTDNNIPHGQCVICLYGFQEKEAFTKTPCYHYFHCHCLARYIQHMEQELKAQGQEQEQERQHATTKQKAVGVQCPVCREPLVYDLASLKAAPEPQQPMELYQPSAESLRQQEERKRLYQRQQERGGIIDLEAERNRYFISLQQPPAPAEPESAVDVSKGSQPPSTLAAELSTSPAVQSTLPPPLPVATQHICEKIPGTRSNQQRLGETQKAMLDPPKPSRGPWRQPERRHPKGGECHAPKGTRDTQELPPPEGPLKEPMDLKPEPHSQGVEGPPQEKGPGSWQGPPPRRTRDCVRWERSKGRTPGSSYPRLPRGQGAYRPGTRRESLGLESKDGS
UniProt Q9H6T3, whole entry, looked up: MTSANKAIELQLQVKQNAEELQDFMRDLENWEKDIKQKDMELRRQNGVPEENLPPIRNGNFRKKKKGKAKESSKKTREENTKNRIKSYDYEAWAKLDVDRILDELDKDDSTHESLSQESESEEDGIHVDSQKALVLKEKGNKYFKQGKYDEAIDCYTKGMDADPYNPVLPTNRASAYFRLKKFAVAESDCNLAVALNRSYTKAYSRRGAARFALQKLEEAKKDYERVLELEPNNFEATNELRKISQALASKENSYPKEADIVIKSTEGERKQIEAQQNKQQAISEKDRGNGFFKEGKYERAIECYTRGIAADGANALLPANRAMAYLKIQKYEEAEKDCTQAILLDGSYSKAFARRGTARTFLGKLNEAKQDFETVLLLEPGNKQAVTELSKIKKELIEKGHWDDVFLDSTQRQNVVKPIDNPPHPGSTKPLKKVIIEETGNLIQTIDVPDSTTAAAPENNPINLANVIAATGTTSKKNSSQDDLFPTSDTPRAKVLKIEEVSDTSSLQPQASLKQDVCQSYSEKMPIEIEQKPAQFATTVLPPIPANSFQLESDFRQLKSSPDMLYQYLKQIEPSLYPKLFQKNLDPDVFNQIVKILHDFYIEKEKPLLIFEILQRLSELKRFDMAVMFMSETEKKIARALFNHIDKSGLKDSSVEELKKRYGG
UniProt P27694, whole entry, looked up: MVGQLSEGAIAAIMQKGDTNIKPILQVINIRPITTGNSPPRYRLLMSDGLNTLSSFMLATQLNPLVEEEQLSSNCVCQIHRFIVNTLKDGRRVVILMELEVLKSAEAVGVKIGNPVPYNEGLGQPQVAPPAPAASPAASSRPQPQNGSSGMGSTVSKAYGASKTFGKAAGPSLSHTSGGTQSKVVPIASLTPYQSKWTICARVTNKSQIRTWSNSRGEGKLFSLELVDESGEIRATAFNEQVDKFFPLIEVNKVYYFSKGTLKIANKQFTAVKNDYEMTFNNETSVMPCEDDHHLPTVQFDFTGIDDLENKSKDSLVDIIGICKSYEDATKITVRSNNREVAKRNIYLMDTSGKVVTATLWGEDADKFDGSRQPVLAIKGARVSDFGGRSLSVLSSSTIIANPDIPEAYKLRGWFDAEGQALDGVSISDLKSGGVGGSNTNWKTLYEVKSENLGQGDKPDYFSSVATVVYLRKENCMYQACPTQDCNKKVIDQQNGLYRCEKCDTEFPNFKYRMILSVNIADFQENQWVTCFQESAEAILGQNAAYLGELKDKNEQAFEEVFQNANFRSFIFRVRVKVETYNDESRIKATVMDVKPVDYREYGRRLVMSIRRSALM
UniProt P04843: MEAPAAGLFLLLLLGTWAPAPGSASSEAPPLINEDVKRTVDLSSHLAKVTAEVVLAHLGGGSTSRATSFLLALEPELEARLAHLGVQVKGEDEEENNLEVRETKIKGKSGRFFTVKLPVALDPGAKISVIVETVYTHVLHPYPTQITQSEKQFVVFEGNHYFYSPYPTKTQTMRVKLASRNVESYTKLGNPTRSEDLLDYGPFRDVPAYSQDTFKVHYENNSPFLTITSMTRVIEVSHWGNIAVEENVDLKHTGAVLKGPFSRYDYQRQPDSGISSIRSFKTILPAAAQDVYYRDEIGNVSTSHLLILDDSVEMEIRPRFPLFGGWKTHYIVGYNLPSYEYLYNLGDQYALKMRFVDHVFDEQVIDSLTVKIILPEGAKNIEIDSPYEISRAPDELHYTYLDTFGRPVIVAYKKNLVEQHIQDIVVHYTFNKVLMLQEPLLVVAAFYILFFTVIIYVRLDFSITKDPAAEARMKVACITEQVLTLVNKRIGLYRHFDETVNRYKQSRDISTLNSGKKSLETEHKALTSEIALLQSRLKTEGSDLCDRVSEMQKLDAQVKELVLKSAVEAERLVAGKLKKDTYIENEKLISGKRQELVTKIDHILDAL

[1] = compound: Cc1cccc(CC(=O)N2CCc3c2ccc(-c2cn(C)c4ncnc(N)c24)c3F)n1
How it was run: as §1

nilotinib = compound: Cc1cn(-c2cc(NC(=O)c3ccc(C)c(Nc4nccc(-c5cccnc5)n4)c3)cc(C(F)(F)F)c2)cn1 [nilotinib]
How it was run: as §1

[2] = compound: Cc1nc(Nc2n[nH]c3c2CN(C(=O)N[C@H](CN(C)C)c2ccccc2)C3(C)C)c2sccc2n1
How it was run: as §1

dasatinib = compound: Cc1nc(Nc2ncc(C(=O)Nc3c(C)cccc3Cl)s2)cc(N2CCN(CCO)CC2)n1 [dasatinib]
How it was run: as §1

[3] = compound: Cc1ncc(-c2ccnc(Nc3ccc(S(C)(=O)=O)cc3)n2)n1C(C)C
How it was run: as §1

[4] = compound: Cn1cc(-c2ccc3c(c2)CCN3C(=O)Cc2cccc(C(F)(F)F)c2)c2c(N)ncnc21
How it was run: as §1

[5] = compound: Cn1cc(-c2ccc3nnc(C(F)(F)c4ccc5ncccc5c4)n3n2)cn1
How it was run: as §1

tipifarnib = compound: Cn1cncc1[C@@](N)(c1ccc(Cl)cc1)c1ccc2c(c1)c(-c1cccc(Cl)c1)cc(=O)n2C [tipifarnib]
How it was run: as §1

mubritinib = compound: FC(F)(F)c1ccc(/C=C/c2nc(COc3ccc(CCCCn4ccnn4)cc3)co2)cc1 [mubritinib]
How it was run: as §1

Measured: log2 fold change

RRAGC (UniProt Q9HB90)
inactive: bafetinib -0.07 | [1] -0.054 | nilotinib -0.005 | [2] 0.022 | dasatinib 0.05 | [3] -0.021 | [4] 0.001 | [5] 0.05 | tipifarnib -0.027 | mubritinib 0.031

RPS14 (UniProt P62263)
inactive: bafetinib 0.265 | [1] -0.061 | nilotinib 0.029 | [2] 0.184 | dasatinib -0.011 | [3] -0.047 | [4] -0.081 | [5] -0.091 | tipifarnib 0.07 | mubritinib -0.05

RP2 (UniProt O75695)
inactive: bafetinib 0.094 | [1] 0.1 | nilotinib 0.135 | [2] -0.12 | dasatinib 0.02 | [3] -0.143 | [4] 0.044 | [5] 0.009 | tipifarnib 0.028 | mubritinib 0.068

RPL7 (UniProt P18124)
inactive: bafetinib 0.596 | [1] -0.001 | nilotinib 0.002 | [2] 0.307 | dasatinib 0.303 | [3] -0.029 | [4] -0.538 | [5] -0.262 | tipifarnib 0.452 | mubritinib -0.384

RRM2 isoform 2 (UniProt P31350)
inactive: bafetinib 0.018 | [1] 0.003 | nilotinib 0.025 | [2] 0.003 | dasatinib -0.006 | [3] -0.049 | [4] 0.027 | [5] -0.001 | tipifarnib -0.036 | mubritinib 0.043

RNPEP (UniProt Q9H4A4)
inactive: bafetinib 0.003 | [1] 0.035 | nilotinib -0.004 | [2] -0.041 | dasatinib -0.134 | [3] 0.025 | [4] 0.012 | [5] 0.043 | tipifarnib -0.116 | mubritinib 0.051

ROMO1 (UniProt P60602)
inactive: bafetinib 0.056 | [1] -0.022 | nilotinib -0.001 | [2] 0.027 | dasatinib -0.03 | [3] -0.039 | [4] 0.066 | [5] 0.063 | tipifarnib 0.062 | mubritinib 0.01

RPS7 (UniProt P62081)
inactive: bafetinib 0.27 | [1] 0 | nilotinib 0.073 | [2] 0.171 | dasatinib 0.093 | [3] -0.029 | [4] -0.182 | [5] -0.057 | tipifarnib 0.131 | mubritinib -0.158

RNF25 (UniProt Q96BH1)
inactive: bafetinib -0.008 | [1] 0 | nilotinib -0.037 | [2] -0.023 | dasatinib -0.004 | [3] -0.006 | [4] 0.07 | [5] -0.004 | tipifarnib -0.035 | mubritinib 0.094

RPL35A (UniProt P18077)
inactive: bafetinib 0.56 | [1] -0.002 | nilotinib -0.004 | [2] 0.321 | dasatinib 0.33 | [3] -0.042 | [4] -0.634 | [5] -0.212 | tipifarnib 0.481 | mubritinib -0.338

RPAP3 (UniProt Q9H6T3)
inactive: bafetinib 0.072 | [1] 0.054 | nilotinib -0.01 | [2] 0.002 | dasatinib -0.106 | [3] 0.06 | [4] -0.016 | [5] -0.045 | tipifarnib -0.056 | mubritinib 0.029

RPS15 (UniProt P62841)
inactive: bafetinib 0.087 | [1] -0.09 | nilotinib 0.033 | [2] 0.221 | dasatinib 0.133 | [3] -0.106 | [4] -0.194 | [5] -0.027 | tipifarnib 0.082 | mubritinib -0.044

RPS10 (UniProt P46783)
inactive: bafetinib 0.194 | [1] -0.002 | nilotinib 0.02 | [2] 0.14 | dasatinib 0.053 | [3] -0.074 | [4] -0.075 | [5] -0.002 | tipifarnib 0.113 | mubritinib -0.003

RPA1 (UniProt P27694)
inactive: bafetinib 0.029 | [1] 0.019 | nilotinib -0.051 | [2] -0.1 | dasatinib 0.077 | [3] 0.016 | [4] -0.004 | [5] 0.015 | tipifarnib -0.074 | mubritinib 0.026

RPN1 (UniProt P04843)
inactive: bafetinib -0.06 | [1] 0.009 | nilotinib -0.038 | [2] 0.007 | dasatinib -0.056 | [3] -0.03 | [4] -0.006 | [5] 0.026 | tipifarnib -0.009 | mubritinib 0.018

Reference: the supplement of paper PMC10849652
